The values below come from article PMC8514468.

No constants are given. Whether binding was seen depends on the method and setting. In cells and extracts the contact can be indirect. Some results given as binding are weak or reduced against the parent protein; the word gives no strength.

Experiment [1] concerns the target T1, Sirt1 (mouse (endogenous in C2C12)) (UniProt Q923E4).
T1 sequence: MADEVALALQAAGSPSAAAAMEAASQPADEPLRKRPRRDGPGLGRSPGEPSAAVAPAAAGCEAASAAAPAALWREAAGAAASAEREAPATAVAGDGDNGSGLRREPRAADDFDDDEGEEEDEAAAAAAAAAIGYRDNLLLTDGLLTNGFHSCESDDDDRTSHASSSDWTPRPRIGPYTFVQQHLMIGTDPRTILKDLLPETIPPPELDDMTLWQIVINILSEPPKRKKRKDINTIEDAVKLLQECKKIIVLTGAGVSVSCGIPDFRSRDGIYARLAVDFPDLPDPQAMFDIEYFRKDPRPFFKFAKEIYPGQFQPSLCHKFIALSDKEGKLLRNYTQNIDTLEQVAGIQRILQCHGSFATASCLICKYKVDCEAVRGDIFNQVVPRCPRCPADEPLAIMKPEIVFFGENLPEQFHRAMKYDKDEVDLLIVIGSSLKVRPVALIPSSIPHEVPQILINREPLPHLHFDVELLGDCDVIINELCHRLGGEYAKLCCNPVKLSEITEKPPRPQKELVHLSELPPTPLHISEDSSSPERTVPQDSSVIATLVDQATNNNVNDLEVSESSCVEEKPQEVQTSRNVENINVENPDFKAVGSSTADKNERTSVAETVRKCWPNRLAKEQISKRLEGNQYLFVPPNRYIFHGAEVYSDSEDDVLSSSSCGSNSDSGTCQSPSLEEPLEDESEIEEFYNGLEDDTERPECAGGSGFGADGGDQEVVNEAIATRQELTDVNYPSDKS
Nature of the experiment: co-IP; c2MP cytoplasmic fractions; protein A/G magnetic beads with 10 ug p107-SD9, Sirt1-B7 or IgG-D7 antibody; lysates incubated overnight 4 °C; Western blot for p107 (13354-1-AP) or Sirt1 (D1D7); reciprocal.

Experiment [2] deals with T1, Sirt1 (mouse (endogenous in C2C12)). Nature of the experiment: co-IP; c2MP whole cell lysates, pre-cleared; protein A/G agarose beads with 5 ug p107-C18, Sirt1-B7 or IgG-D7 antibody, overnight 4 °C; washed 3 times with 50 mM HEPES pH 7.0, 250 mM NaCl, 0.1% Np-40; Western blot for p107-SD9 or Sirt1-D1D7; reciprocal. (A western blot detects proteins with antibodies after separation by electrophoresis.)

B1: p107 (Rbl1) (protein, UniProt Q64701 1-1063)
chain: MFEDEPHAEGAAAVAAAREALQALCQELNLDEGSAAEALDDFTAIRGNYSLEGEVIHWLACSLYVACRKSIIPTVGKGVMEGNCVSLTRILRSAKLSLIQFFSKMKKWMDMSNLPQEFRERIERLERNFEVSTVIFKKFEPIFLDIFQNPYEEPPKLPRSRKQRRIPCSVKDLFNFCWTLFVYTKGNFRMIGDDLVNSYHLLLCCLDLIFANAIMCPNRRDLLNPSFKGLPSDFHAPDFKAAEEPPCIIAVLCDLHDGLLVEAKGIKEHYFKPYISKLFDKKILKGECLLDLSSFTDNSKAVNKEYEEYVLTVGDFDERIFLGADAEEEIGTPRKFTADTPFGKLTSQASVECNLQQHFEKKRSFAPSTPLTGRRYLQEKEAVTTPVASATQSVSRLQSIVAGLKSAPSEQLLNIFESCMRNPMGNIIKIVKGIGETFCQHYTQSTDKQPGSHIDFAVNRLKLAEILYYKILETIMVQETRRLHGMDMSVLLEQDIFHKSLMACCLEIVLFAYSSPRTFPWIIEVLDLQPFYFYKVIEVVIRSEEGLSRDMVKHLNSIEEQILESLAWTNNSALWEALHASANRVPSCEEVIFPNNFEIGNGGNVQGHLPMMPMSPIIHPRVKEVRTDSGSLRQDMQPLSPISVHERYSSPAAGSAKRRLFGDDPPKDTLMDKIMAEGTKLKIAPSSVTAESLSISPGQALLTMATTTVTGTTGRKVTVPLHGIANDAGEITLVPISMNPTQESTAESPVSLTAQSLIGTSPKQTHLTKAQDAHLTGVSKPKRTGSLALFYRKVYHLASVRLRDLCLKLDVSNELRRKIWTCFEFTLVHCPDLMKDRHLDQLLLCAFYIMAKVTKEERTFQEIMKSYRNQPQANSHVYRSVLLKSIPGGVVVYNGDCEMTDGDIEDATKTPNCSSEPVKEERGDLIKFYNTVYVGRVKSFALKYDLSNQDHIMDAPPLSPFPHIKQQPGSPRRISQQHSLYVSPHKNGAGLTPRSALLYKFNGSPSKSLKDINNMIRQGEQKTKKRVIAISGDADSPAKRLCQENDDVLLKRLQDVVSERANH
Turning to B1, the binding entry in experiment [1] and in experiment [2] was “binds” each time.
